Reference: US12729225B2, “Non-canonical SWI/SNF complex and uses thereof” (Dana-Farber Cancer Institute, Inc., priority 2018, dated 2026)

B1: ATP2A2 (protein, UniProt P16615 1-1042, looked up)
Sarcoplasmic/endoplasmic …: MENAHTKTVEEVLGHFGVNESTGLSLEQVKKLKERWGSNELPAEEGKTLLELVIEQFEDLLVRILLLAACISFVLAWFEEGEETITAFVEPFVILLILVANAIVGVWQERNAENAIEALKEYEPEMGKVYRQDRKSVQRIKAKDIVPGDIVEIAVGDKVPADIRLTSIKSTTLRVDQSILTGESVSVIKHTDPVPDPRAVNQDKKNMLFSGTNIAAGKAMGVVVATGVNTEIGKIRDEMVATEQERTPLQQKLDEFGEQLSKVISLICIAVWIINIGHFNDPVHGGSWIRGAIYYFKIAVALAVAAIPEGLPAVITTCLALGTRRMAKKNAIVRSLPSVETLGCTSVICSDKTGTLTTNQMSVCRMFILDRVEGDTCSLNEFTITGSTYAPIGEVHKDDKPVNCHQYDGLVELATICALCNDSALDYNEAKGVYEKVGEATETALTCLVEKMNVFDTELKGLSKIERANACNSVIKQLMKKEFTLEFSRDRKSMSVYCTPNKPSRTSMSKMFVKGAPEGVIDRCTHIRVGSTKVPMTSGVKQKIMSVIREWGSGSDTLRCLALATHDNPLRREEMHLEDSANFIKYETNLTFVGCVGMLDPPRIEVASSVKLCRQAGIRVIMITGDNKGTAVAICRRIGIFGQDEDVTSKAFTGREFDELNPSAQRDACLNARCFARVEPSHKSKIVEFLQSFDEITAMTGDGVNDAPALKKAEIGIAMGSGTAVAKTASEMVLADDNFSTIVAAVEEGRAIYNNMKQFIRYLISSNVGEVVCIFLTAALGFPEALIPVQLLWVNLVTDGLPATALGFNPPDLDIMNKPPRNPKEPLISGWLFFRYLAIGCYVGAATVGAAAWWFIAADGGPRVSFYQLSHFLQCKEDNPDFEGVDCAIFESPYPMTMALSVLVTIEMCNALNSLSENQSLLRMPPWENIWLVGSICLSMSLHFLILYVEPLPLIFQITPLNVTQWLMVLKISLPVILMDETLKFVARNYLEPGKECVQPATKSCSFSACTDGISWPFVLLIMPLVIWVYSTDTNFSDMFWS
B2: UQCRC2 (protein, UniProt P22695 15-453, looked up)
Cytochrome b-c1 complex …: SLKVAPKVKATAAPAGAPPQPQDLEFTKLPNGLVIASLENYSPVSRIGLFIKAGSRYEDFSNLGTTHLLRLTSSLTTKGASSFKITRGIEAVGGKLSVTATRENMAYTVECLRGDVDILMEFLLNVTTAPEFRRWEVADLQPQLKIDKAVAFQNPQTHVIENLHAAAYRNALANPLYCPDYRIGKVTSEELHYFVQNHFTSARMALIGLGVSHPVLKQVAEQFLNMRGGLGLSGAKANYRGGEIREQNGDSLVHAAFVAESAVAGSAEANAFSVLQHVLGAGPHVKRGSNTTSHLHQAVAKATQQPFDVSAFNASYSDSGLFGIYTISQATAAGDVIKAAYNQVKTIAQGNLSNTDVQAAKNKLKAGYLMSVESSECFLEEVGSQALVAGSYMPPSTVLQQIDSVANADIINAAKKFVSGQKSMAASGNLGHTPFVDEL
B3: PRSS3 (protein, UniProt P35030 81-304, looked up)
Trypsin-3: IVGGYTCEENSLPYQVSLNSGSHFCGGSLISEQWVVSAAHCYKTRIQVRLGEHNIKVLEGNEQFINAAKIIRHPKYNRDTLDNDIMLIKLSSPAVINARVSTISLPTTPPAAGTECLISGWGNTLSFGADYPDELKCLDAPVLTQAECKASYPGKITNSMFCVGFLEGGKDSCQRDSGGPVVCNGQLQGVVSWGHGCAWKNRPGVYTKVYNYVDWIKDTIAANS
B4: TUBB4A (protein, UniProt P04350 1-444, looked up)
Tubulin beta-4A chain: MREIVHLQAGQCGNQIGAKFWEVISDEHGIDPTGTYHGDSDLQLERINVYYNEATGGNYVPRAVLVDLEPGTMDSVRSGPFGQIFRPDNFVFGQSGAGNNWAKGHYTEGAELVDAVLDVVRKEAESCDCLQGFQLTHSLGGGTGSGMGTLLISKIREEFPDRIMNTFSVVPSPKVSDTVVEPYNATLSVHQLVENTDETYCIDNEALYDICFRTLKLTTPTYGDLNHLVSATMSGVTTCLRFPGQLNADLRKLAVNMVPFPRLHFFMPGFAPLTSRGSQQYRALTVPELTQQMFDAKNMMAACDPRHGRYLTVAAVFRGRMSMKEVDEQMLSVQSKNSSYFVEWIPNNVKTAVCDIPPRGLKMAATFIGNSTAIQELFKRISEQFTAMFRRKAFLHWYTGEGMDEMEFTEAESNMNDLVSEYQQYQDATAEEGEFEEEAEEEVA
B5: GLYR1 (protein, UniProt Q49A26 1-553, looked up)
Cytokine-like nuclear factor …: MAAVSLRLGDLVWGKLGRYPPWPGKIVNPPKDLKKPRGKKCFFVKFFGTEDHAWIKVEQLKPYHAHKEEMIKINKGKRFQQAVDAVEEFLRRAKGKDQTSSHNSSDDKNRRNSSEERSRPNSGDEKRKLSLSEGKVKKNMGEGKKRVSSGSSERGSKSPLKRAQEQSPRKRGRPPKDEKDLTIPESSTVKGMMAGPMAAFKWQPTASEPVKDADPHFHHFLLSQTEKPAVCYQAITKKLKICEEETGSTSIQAADSTAVNGSITPTDKKIGFLGLGLMGSGIVSNLLKMGHTVTVWNRTAEKCDLFIQEGARLGRTPAEVVSTCDITFACVSDPKAAKDLVLGPSGVLQGIRPGKCYVDMSTVDADTVTELAQVIVSRGGRFLEAPVSGNQQLSNDGMLVILAAGDRGLYEDCSSCFQAMGKTSFFLGEVGNAAKMMLIVNMVQGSFMATIAEGLTLAQVTGQSQQTLLDILNQGQLASIFLDQKCQNILQGNFKPDFYLKYIQKDLRLAIALGDAVNHPTPMAAAANEVYKRAKALDQSDNDMSAVYRAYIH
B6: LACRT (protein, UniProt Q9GZZ8 20-138, looked up)
Extracellular glycoprotein …: EDASSDSTGADPAQEAGTSKPNEEISGPAEPASPPETTTTAQETSAAAVQGTAKVTSSRQELNPLKSIVEKSILLTEQALAKAGKGMHGGVPGGKQFIENGSEFAQKLLKKFSLLKPWA
B7: NOP56 (protein, UniProt O00567 1-594, looked up)
Nucleolar protein 56: MVLLHVLFEHAVGYALLALKEVEEISLLQPQVEESVLNLGKFHSIVRLVAFCPFASSQVALENANAVSEGVVHEDLRLLLETHLPSKKKKVLLGVGDPKIGAAIQEELGYNCQTGGVIAEILRGVRLHFHNLVKGLTDLSACKAQLGLGHSYSRAKVKFNVNRVDNMIIQSISLLDQLDKDINTFSMRVREWYGYHFPELVKIINDNATYCRLAQFIGNRRELNEDKLEKLEELTMDGAKAKAILDASRSSMGMDISAIDLINIESFSSRVVSLSEYRQSLHTYLRSKMSQVAPSLSALIGEAVGARLIAHAGSLTNLAKYPASTVQILGAEKALFRALKTRGNTPKYGLIFHSTFIGRAAAKNKGRISRYLANKCSIASRIDCFSEVPTSVFGEKLREQVEERLSFYETGEIPRKNLDVMKEAMVQAEEAAAEITRKLEKQEKKRLKKEKKRLAALALASSENSSSTPEECEEMSEKPKKKKKQKPQEVPQENGMEDPSISFSKPKKKKSFSKEELMSSDLEETAGSTSIPKRKKSTPKEETVNDPEEAGHRSGSKKKRKFSKEEPVSSGPEEAVGKSSSKKKKKFHKASQED
B8: TUBB1 (protein, UniProt Q9H4B7 1-451, looked up)
Tubulin beta-1 chain: MREIVHIQIGQCGNQIGAKFWEMIGEEHGIDLAGSDRGASALQLERISVYYNEAYGRKYVPRAVLVDLEPGTMDSIRSSKLGALFQPDSFVHGNSGAGNNWAKGHYTEGAELIENVLEVVRHESESCDCLQGFQIVHSLGGGTGSGMGTLLMNKIREEYPDRIMNSFSVMPSPKVSDTVVEPYNAVLSIHQLIENADACFCIDNEALYDICFRTLKLTTPTYGDLNHLVSLTMSGITTSLRFPGQLNADLRKLAVNMVPFPRLHFFMPGFAPLTAQGSQQYRALSVAELTQQMFDARNTMAACDLRRGRYLTVACIFRGKMSTKEVDQQLLSVQTRNSSCFVEWIPNNVKVAVCDIPPRGLSMAATFIGNNTAIQEIFNRVSEHFSAMFKRKAFVHWYTSEGMDINEFGEAENNIHDLVSEYQQFQDAKAVLEEDEEVTEEAEMEPEDKGH
B9: PIP (protein, UniProt P12273 29-146, looked up)
Prolactin-inducible protein: QDNTRKIIIKNFDIPKSVRPNDEVTAVLAVQTELKECMVVKTYLISSIPLQGAFNYKYTACLCDDNPKTFYWDFYTNRTVQIAAVVDVIRELGICPDDAAVIPIKNNRFYTIEILKVE
B10: BCAR1 (protein, UniProt P56945 1-870, looked up)
Breast cancer anti-estrogen …: MNHLNVLAKALYDNVAESPDELSFRKGDIMTVLEQDTQGLDGWWLCSLHGRQGIVPGNRLKILVGMYDKKPAGPGPGPPATPAQPQPGLHAPAPPASQYTPMLPNTYQPQPDSVYLVPTPSKAQQGLYQVPGPSPQFQSPPAKQTSTFSKQTPHHPFPSPATDLYQVPPGPGGPAQDIYQVPPSAGMGHDIYQVPPSMDTRSWEGTKPPAKVVVPTRVGQGYVYEAAQPEQDEYDIPRHLLAPGPQDIYDVPPVRGLLPSQYGQEVYDTPPMAVKGPNGRDPLLEVYDVPPSVEKGLPPSNHHAVYDVPPSVSKDVPDGPLLREETYDVPPAFAKAKPFDPARTPLVLAAPPPDSPPAEDVYDVPPPAPDLYDVPPGLRRPGPGTLYDVPRERVLPPEVADGGVVDSGVYAVPPPAEREAPAEGKRLSASSTGSTRSSQSASSLEVAGPGREPLELEVAVEALARLQQGVSATVAHLLDLAGSAGATGSWRSPSEPQEPLVQDLQAAVAAVQSAVHELLEFARSAVGNAAHTSDRALHAKLSRQLQKMEDVHQTLVAHGQALDAGRGGSGATLEDLDRLVACSRAVPEDAKQLASFLHGNASLLFRRTKATAPGPEGGGTLHPNPTDKTSSIQSRPLPSPPKFTSQDSPDGQYENSEGGWMEDYDYVHLQGKEEFEKTQKELLEKGSITRQGKSQLELQQLKQFERLEQEVSRPIDHDLANWTPAQPLAPGRTGGLGPSDRQLLLFYLEQCEANLTTLTNAVDAFFTAVATNQPPKIFVAHSKFVILSAHKLVFIGDTLSRQAKAADVRSQVTHYSNLLCDLLRGIVATTKAAALQYPSPSAAQDMVERVKELGHSTQQFRRVLGQLAAA
B11: PRDX1 (protein, UniProt Q06830 2-199, looked up)
Peroxiredoxin-1: SSGNAKIGHPAPNFKATAVMPDGQFKDISLSDYKGKYVVFFFYPLDFTFVCPTEIIAFSDRAEEFKKLNCQVIGASVDSHFCHLAWVNTPKKQGGLGPMNIPLVSDPKRTIAQDYGVLKADEGISFRGLFIIDDKGILRQITVNDLPVGRSVDETLRLVQAFQFTDKHGEVCPAGWKPGSDTIKPDVQKSKEYFSKQK

Tested on: mSWI/SNF complexes
Experiment: mSWI/SNF complex purification with HA-tagged baits and mass spectrometry (peptide counts)
Design: species or system human
[1] = 293_HA-BRD7: HA-BRD7 bait purification, total peptide count per co-purified protein
[2] = 293_HA-BRD7: HA-BRD7 bait purification, unique peptide count per co-purified protein
[3] = total peptide count of the co-purified protein, 293_HA-BRD9 (HA-BRD9 bait, mass spectrometry), Table 3b
[4] = unique peptide count of the co-purified protein, 293_HA-BRD9 (HA-BRD9 bait, mass spectrometry), Table 3b
[5] = 293_HA-BRD7 bait purification, mass spectrometry, total peptides per co-purified protein
[6] = 293_HA-BRD7 bait purification, mass spectrometry, unique peptides per co-purified protein

Molecule | Total [1] | Unique [2] | Total [3] | Unique [4] | Total [5] | Unique [6] | Total (293_HA-DPF2 purification, total peptides) | Unique (293_HA-DPF2 purification, unique peptides)
B1 | 15 | 13 | 2 | 2 |  |  |  | 
B2 | 12 | 11 | 2 | 1 |  |  |  | 
B3 |  |  | 1 | 1 |  |  |  | 
B4 | 4 | 4 | 1 | 1 |  |  |  | 
B5 | 10 | 10 | 1 | 1 |  |  |  | 
B6 |  |  | 1 | 1 |  |  |  | 
B7 | 6 | 6 | 1 | 1 |  |  |  | 
B8 |  |  | 1 | 1 | 4 | 3 |  | 
B9 |  |  | 1 | 1 |  |  | 1 | 1
B10 | 15 | 11 | 1 | 1 |  |  |  | 
B11 |  |  | 1 | 1 | 2 | 2 |  | 
